The results in this text go back to article PMC8848768 (Chemical Science, 2022).

This data set is described as follows: general procedure: solution-phase peptide synthesis; EDC•HCl, HOBt.

Consider “(2R,3S)-2-Acetamido-N -((4S,10S,13R,16R,22S,25R)-26-hydroxy-22-(2-hydroxypropan-2-yl)-4,10,13-triisopropyl-2,16,26-trimethyl-6,9,12,15,18,21,24-heptaoxo-7,19-di(propan-2-ylidene)-2,5,8,11,14,17,20,23-octaazaheptacosan-25-yl)-3-methylpentanamide”, for which, for the setting “late stage modification step”, the step yield amounted to 80%.

“Methyl (2-(2-(2-((2S ,3R)-2-((tert-Butoxycarbonyl)amino)-3-methyl-3-((triethylsilyl)oxy)pentanamido)-3-ethylpent-2-enamido)acetamido)-3-methylbut-2-enoyl)-D-valinate” showed a step yield (coupling step) of 47%. Same read-out and setting: to “Methyl (2-(2-(2-((2S ,3R)-2-((tert-Butoxycarbonyl)amino)-3-methyl-3-((triethylsilyl)oxy)pentanamido)-3-methylbut-2-enamido)acetamido)-3-ethylpent-2-enoyl)-D-valinate” belongs 32%.

Turning to “tert-Butyl ((4S ,10S,13R,16R,22S)-25,25-Diethyl-4,10,13-triisopropyl-2,16,23,23-tetramethyl-6,9,12,15,18,21-hexaoxo-7,19-di(propan-2-ylidene)-24-oxa-2,5,8,11,14,17,20-heptaaza-25-silaheptacosan-22-yl)carbamate”, the step yield (coupling step) turned out to be 95%. Regarding “tert-Butyl ((7R,13S ,16R ,19R,20S )-13,16-Bis(2-hydroxypropan-2-yl)-2,7,20-trimethyl-6,9,12,15,18-pentaoxo-10-(propan-2-ylidene)-2,5,8,11,14,17-hexaazadocosan-19-yl)carbamate”, where the note is “coupling step”, the step yield is on record as 78%.
